# Where a name gives a salt, the structure may show the parent alone. ± gives the standard deviation of the averaged measurements. Whole data set: some 1,800 compounds, median “GFP- (p16Ink4a-) cell count relative to negative-control wells” near 0.99, cut for the lowest 2% near 0.5. Some of the results follow.
# System: mouse p16Ink4a+/- lung fibroblasts (INKBRITE, bleomycin-injured)
# Assay: GFP- (p16Ink4a-) cell count relative to negative-control wells (fold of vehicle); higher = more p16Ink4a- cells surviving
# Conditions: 1 µM; 3 days
row,Structure (SMILES),GFP-
1,COc1cc2c(c(OC)c1OC)-c1c(cc3c(c1OC)OCO3)C[C@@H](C)[C@@H](C)C2 [Schisandrin B],1.07
2,C[C@@H]1CN(c2c(F)c(N)c3c(=O)c(C(=O)O)cn(C4CC4)c3c2F)C[C@H](C)N1 [Sparfloxacin],1.02
3,Cc1cc(O)nc(S)n1 [Methylthiouracil],0.955
4,COc1ccc(COc2cc3oc(=O)c4cc(C(C)O)ccc4c3cc2OC)cc1 (stereo unspecified) [Palomid],0.926
5,C[C@H]1[C@H](OC(=O)CCC(=O)O)O[C@@H]2O[C@@]3(C)CC[C@H]4[C@H](C)CC[C@@H]1[C@@]24OO3 [Artesunate],0.838
6,Cc1cccc(Nc2ccccc2C(=O)O)c1C [Mefenamic Acid],1.01
7,Nc1nccc(Oc2ccc(NC(=O)c3cncc(-c4ccc(F)cc4)c3O)cc2F)c1Cl,0.821
8,O=S(=O)(c1ccccc1)c1cnc2c(N3CCNCC3)cccc2c1,1
9,COc1ccc(S(=O)(=O)Nc2cccnc2Nc2ccc(O)cc2)cc1,0.6
10,"CCCc1cc(C(N)=S)ccn1 [Protionamide, Ektebin]",0.983
11,CC(C)(O)c1ccccc1CC[C@@H](SCC1(CC(=O)O)CC1)c1cccc(/C=C/c2ccc3ccc(Cl)cc3n2)c1 [Montelukast],1.1
12,CC(C)(C)C(=O)C(Oc1ccc(Cl)cc1)n1ccnc1 (stereo unspecified) [Climbazole],0.905
13,C=CC(C)(O)CC[C@@H]1[C@@]2(C)CCCC(C)(C)C2CC[C@@]1(C)O (stereo partly specified) [Sclareol],0.685
14,O=C1CCC(N2C(=O)c3ccccc3C2=O)C(=O)N1 (stereo unspecified) [Thalidomide],1.2
15,COc1ccc(C2(C#N)CCC(C(=O)O)CC2)cc1OC1CCCC1 (stereo unspecified) [Cilomilast],1.13
16,CC(C)(C)c1cc(NC(=O)Nc2ccc(-c3cn4c(n3)sc3cc(OCCN5CCOCC5)ccc34)cc2)no1 [Quizartinib],0.936
17,CC1(C)S[C@@H]2[C@H](NC(=O)Cc3ccccc3)C(=O)N2[C@H]1C(=O)O [Benzylpenicillin],1.12
18,CCc1cnn2c(NCc3ccc[n+]([O-])c3)cc(N3CCCC[C@H]3CCO)nc12 [Dinaciclib],0.383
19,Cc1cc(=O)oc2c(C=O)c(O)ccc12,0.965
20,CCOC(=O)c1ncn2c1CN(C)C(=O)c1cc(F)ccc1-2 [Flumazenil],1.11
21,COc1ccc(CCc2nc3cc(-c4c(C)noc4C)ccc3n2C[C@H](C)N2CCOCC2)cc1Cl,0.854 ± 0.4
22,Cc1c[nH]c(-c2cnc(NCCNc3ccc(C#N)cn3)nc2-c2ccc(Cl)cc2Cl)n1,1.14
23,C=C1CC[C@H](O)C/C1=C/C=C1\CCC[C@]2(C)[C@@H]([C@H](C)CCCC(C)C)CC[C@@H]12 [Cholecalciferol],0.99
24,Oc1cc(O)c(Cl)cn1 [Gimeracil],0.984

row,Structure (SMILES),GFP-
1,Cc1cn([C@H]2C[C@H](N=[N+]=[N-])[C@@H](CO)O2)c(=O)[nH]c1=O [Zidovudine],1.09
2,Clc1ccc2c(c1)CCc1cccnc1C2=C1CCNCC1 [Desloratadine],0.939
3,C#Cc1cccc(Nc2ncnc3cc(OCCOC)c(OCCO)cc23)c1,0.823
4,Cc1[nH]nc2ccc(-c3cncc(OC[C@@H](N)Cc4ccccc4)c3)cc12,0.767
5,O=c1c2ccccc2nc2n1CCc1c-2[nH]c2ccccc12 [Rutaecarpine],1.09
6,C=C[C@]1(C)C[C@@H](OC(=O)CS[C@@H]2C[C@H]3CC[C@@H](C2)N3C)[C@]2(C)[C@H](C)CC[C@]3(CCC(=O)[C@H]32)[C@@H](C)[C@@H]1O [Retapamulin],1
7,CC(C)(O)CC(=O)NCCn1ccc2ncnc(Nc3ccc(Oc4cccc(C(F)(F)F)c4)c(Cl)c3)c21,1.03
8,CC(C)C(=O)Oc1ccc(CO)cc1[C@H](CCN(C(C)C)C(C)C)c1ccccc1 [Fesoterodine],1.22
9,O=c1c2ccccc2oc2ccccc12 [Xanthone],1.06
10,Cc1cnc(NC(=O)Nc2cc(Br)c(C)cc2OC[C@@H]2CNCCO2)cn1,0.93
11,COC(=O)N[C@H](C(=O)N1CCC[C@H]1c1nc(-c2ccc(-c3ccc(-c4c[nH]c([C@@H]5CCCN5C(=O)[C@@H](NC(=O)OC)C(C)C)n4)cc3)cc2)c[nH]1)C(C)C [Daclatasvir],1.11
12,"COc1ccc(CNC(=O)Nc2ncc([N+](=O)[O-])s2)cc1 [N-(4-Methoxybenzyl)-N'-(5-Nitro-1,3-Thiazol-2-Yl)Urea]",1.03
13,O=C(O)c1cc(N=Nc2ccc(O)c(C(=O)O)c2)ccc1O [Olsalazine],1.15
14,Cc1onc(-c2ccccc2)c1-c1ccc(S(N)(=O)=O)cc1 [Valdecoxib],0.879
15,C=CCc1cc(OC)c(O)c(C(=O)NCCO)c1 [Alibendol],1.04
16,Clc1ccc(C(Cn2ccnc2)OCc2ccc(Sc3ccccc3)cc2)c(Cl)c1 (stereo unspecified) [Fenticonazole Nitrate],1.13
17,COc1ccccc1N1CCN(CCN(C(=O)C2CCCCC2)c2ccccn2)CC1,0.865
18,CC(=O)OCC(CCn1cnc2cnc(N)nc21)COC(C)=O [Famciclovir],1.16
19,CN1CCC(=C2c3ccccc3C=Cc3ccccc32)CC1 [Cyproheptadine],0.895
20,CC[C@@H](C)C[C@@H](C)CCCCCCCCC(=O)N[C@H]1C[C@@H](O)[C@@H](NCCN)NC(=O)[C@@H]2[C@@H](O)CCN2C(=O)[C@H]([C@H](O)CCN)NC(=O)[C@H]([C@H](O)[C@@H](O)c2ccc(O)cc2)NC(=O)[C@@H]2C[C@@H](O)CN2C(=O)[C@H]([C@@H](C)O)NC1=O [Caspofungin Acetate],1.04
21,CCC(=O)O[C@]1(C(=O)CCl)[C@@H](C)C[C@H]2[C@@H]3CCC4=CC(=O)C=C[C@]4(C)[C@@]3(F)[C@@H](O)C[C@@]21C [Clobetasol Propionate],1.02
22,COCCc1ccc(OCC(O)CNC(C)C)cc1 (stereo unspecified) [Metoprolol],1.04
23,CCOC(=O)OC(C)OC1=C(C(=O)Nc2ccccn2)N(C)S(=O)(=O)c2ccccc21 (stereo unspecified) [Ampiroxicam],1.13
24,C=CC(=O)Nc1cccc(Sc2nc(Nc3ccc(N4CCN(C)CC4)cc3)ncc2Cl)c1,0.995

# Individual results from the entries so far:
# Entry for CN1CCC(=C2c3ccccc3C=Cc3ccccc32)CC1 [Cyproheptadine] under GFP-: 0.895
# Entry for Cc1[nH]nc2ccc(-c3cncc(OC[C@@H](N)Cc4ccccc4)c3)cc12 under GFP-: 0.767
# Entry for CCOC(=O)OC(C)OC1=C(C(=O)Nc2ccccn2)N(C)S(=O)(=O)c2ccccc21 (stereo unspecified) [Ampiroxicam] under GFP-: 1.13
# Entry for C=C[C@]1(C)C[C@@H](OC(=O)CS[C@@H]2C[C@H]3CC[C@@H](C2)N3C)[C@]2(C)[C@H](C)CC[C@]3(CCC(=O)[C@H]32)[C@@H](C)[C@@H]1O [Retapamulin] under GFP-: 1
# Entry for CC(=O)OCC(CCn1cnc2cnc(N)nc21)COC(C)=O [Famciclovir] under GFP-: 1.16
# Entry for CC[C@@H](C)C[C@@H](C)CCCCCCCCC(=O)N[C@H]1C[C@@H](O)[C@@H](NCCN)NC(=O)[C@@H]2[C@@H](O)CCN2C(=O)[C@H]([C@H](O)CCN)NC(=O)[C@H]([C@H](O)[C@@H](O)c2ccc(O)cc2)NC(=O)[C@@H]2C[C@@H](O)CN2C(=O)[C@H]([C@@H](C)O)NC1=O [Caspofungin Acetate] under GFP-: 1.04

# Later entries.

row,Structure (SMILES),GFP-
1,CC[C@H]1OC(=O)[C@H](C)[C@@H](O[C@H]2C[C@@](C)(OC)[C@@H](O)[C@H](C)O2)[C@H](C)[C@@H](O[C@@H]2O[C@H](C)C[C@H](N(C)C)[C@H]2O)[C@](C)(OC)C[C@@H](C)C(=O)[C@H](C)[C@@H](O)[C@]1(C)O [Clarithromycin],0.939
2,O=C(/C=C\n1cnc(-c2cc(C(F)(F)F)cc(C(F)(F)F)c2)n1)NNc1cnccn1 [Selinexor (KPT-330)],0.613
3,O=C(NOC[C@H](O)CO)c1ccc(F)c(F)c1Nc1ccc(I)cc1F,0.846
4,O=P(O)(O)C(O)(Cn1ccnc1)P(=O)(O)O [Zoledronic Acid],0.978
5,CC(=O)O[C@H]1CC[C@@]2(C)C(=CC[C@H]3[C@H]2CC[C@]2(C)C(c4cccnc4)=CC[C@@H]32)C1 [Abiraterone Acetate],1.13
6,N[C@@]1(C(=O)O)CS(=O)(=O)[C@H]2[C@H](C(=O)O)[C@H]21,1.01
7,CC[C@H]1OC(=O)[C@H](C)[C@@H](O[C@H]2C[C@@](C)(OC)[C@@H](O)[C@H](C)O2)[C@H](C)[C@@H](O[C@@H]2O[C@H](C)C[C@H](N(C)C)[C@H]2O)[C@@](C)(O)C[C@@H](C)[C@@H]2N[C@@H](COCCOC)OC([C@H]2C)[C@]1(C)O [Dirithromycin],1.06
8,"COc1cccc2c1C(=O)c1c(O)c3c(c(O)c1C2=O)C[C@@](O)(C(=O)CO)C[C@@H]3O[C@H]1C[C@H](N)[C@@H](O)[C@H](C)O1 [Epirubicin, Epirubicin Hydrochloride]",0.713
9,CC[N+](CC)(CC)CCOc1cccc(OCC[N+](CC)(CC)CC)c1OCC[N+](CC)(CC)CC [Gallamine Triethiodide],1.06
10,Nc1ncnc2c1c(-c1cnc3[nH]ccc3c1)nn2C1CCCC1,0.581
11,O=C(CCc1ccc(O)cc1)c1c(O)cc(O)cc1O [Phloretin],0.984
12,CC(C)(Oc1ccc(Cl)cc1)C(=O)OCCOC(=O)c1cccnc1 [Etofibrate],0.897
13,Cn1cc(C2=C(c3ccc(Cl)cc3Cl)C(=O)NC2=O)c2ccccc21,0.845
14,CCCC(=O)Nc1ccc(OCC(O)CNC(C)C)c(C(C)=O)c1 (stereo unspecified) [Acebutolol],1.04
15,CCn1c(-c2nonc2N)nc2c(C#CC(C)(C)O)ncc(OC[C@H]3CCCNC3)c21,1.05
16,C[C@H](NC(=O)CCc1nc(O)c2ccccc2n1)c1ccccc1,0.998 ± 0.037
17,CCN(c1cc(-c2ccc(CN3CCOCC3)cc2)cc(C(=O)NCc2c(C)cc(C)nc2O)c1C)C1CCOCC1,0.827 ± 0.15
18,CCC[C@H](NC(=O)/C(C#N)=C/c1cccc(Br)n1)c1ccccc1 [Degrasyn],0.963
19,CCC[C@H](NC(=O)[C@@H]1[C@H]2CCC[C@H]2CN1C(=O)[C@@H](NC(=O)[C@@H](NC(=O)c1cnccn1)C1CCCCC1)C(C)(C)C)C(=O)C(=O)NC1CC1 [Telaprevir],0.892
20,Cc1nc(NC(=O)N2CCC[C@H]2C(N)=O)sc1-c1ccnc(C(C)(C)C(F)(F)F)c1,0.875
21,COc1ccc(CC2c3cc(OC)c(OC)cc3CC[N+]2(C)CCC(=O)OCCCCCOC(=O)CC[N+]2(C)CCc3cc(OC)c(OC)cc3C2Cc2ccc(OC)c(OC)c2)cc1OC (stereo unspecified) [Atracurium Besylate],1.04
22,CC(=O)[C@H]1CC[C@H]2[C@@H]3CC=C4C[C@@H](O)CC[C@]4(C)[C@H]3CC[C@]12C [Pregnenolone],1.08
23,COc1cccc(Nc2c(C(N)=O)cnc3c(C)cc(S(=O)(=O)c4cccc(C(=O)N(C)C)c4)cc23)c1,0.849

# Reference: the supplement of paper PMC11060735
